Measurements: paper PMC9913075
Results are given in words; binding and its absence hold for the method and conditions named. In cells and extracts the contact can be indirect. Here binding means that the protein was enriched with, or labelled near, the bait; the list need not be complete. Sequences can lack the tags named with a protein.

The chains behind the UniProt entries cited, without tags or fusion partners.
UniProt Q02880: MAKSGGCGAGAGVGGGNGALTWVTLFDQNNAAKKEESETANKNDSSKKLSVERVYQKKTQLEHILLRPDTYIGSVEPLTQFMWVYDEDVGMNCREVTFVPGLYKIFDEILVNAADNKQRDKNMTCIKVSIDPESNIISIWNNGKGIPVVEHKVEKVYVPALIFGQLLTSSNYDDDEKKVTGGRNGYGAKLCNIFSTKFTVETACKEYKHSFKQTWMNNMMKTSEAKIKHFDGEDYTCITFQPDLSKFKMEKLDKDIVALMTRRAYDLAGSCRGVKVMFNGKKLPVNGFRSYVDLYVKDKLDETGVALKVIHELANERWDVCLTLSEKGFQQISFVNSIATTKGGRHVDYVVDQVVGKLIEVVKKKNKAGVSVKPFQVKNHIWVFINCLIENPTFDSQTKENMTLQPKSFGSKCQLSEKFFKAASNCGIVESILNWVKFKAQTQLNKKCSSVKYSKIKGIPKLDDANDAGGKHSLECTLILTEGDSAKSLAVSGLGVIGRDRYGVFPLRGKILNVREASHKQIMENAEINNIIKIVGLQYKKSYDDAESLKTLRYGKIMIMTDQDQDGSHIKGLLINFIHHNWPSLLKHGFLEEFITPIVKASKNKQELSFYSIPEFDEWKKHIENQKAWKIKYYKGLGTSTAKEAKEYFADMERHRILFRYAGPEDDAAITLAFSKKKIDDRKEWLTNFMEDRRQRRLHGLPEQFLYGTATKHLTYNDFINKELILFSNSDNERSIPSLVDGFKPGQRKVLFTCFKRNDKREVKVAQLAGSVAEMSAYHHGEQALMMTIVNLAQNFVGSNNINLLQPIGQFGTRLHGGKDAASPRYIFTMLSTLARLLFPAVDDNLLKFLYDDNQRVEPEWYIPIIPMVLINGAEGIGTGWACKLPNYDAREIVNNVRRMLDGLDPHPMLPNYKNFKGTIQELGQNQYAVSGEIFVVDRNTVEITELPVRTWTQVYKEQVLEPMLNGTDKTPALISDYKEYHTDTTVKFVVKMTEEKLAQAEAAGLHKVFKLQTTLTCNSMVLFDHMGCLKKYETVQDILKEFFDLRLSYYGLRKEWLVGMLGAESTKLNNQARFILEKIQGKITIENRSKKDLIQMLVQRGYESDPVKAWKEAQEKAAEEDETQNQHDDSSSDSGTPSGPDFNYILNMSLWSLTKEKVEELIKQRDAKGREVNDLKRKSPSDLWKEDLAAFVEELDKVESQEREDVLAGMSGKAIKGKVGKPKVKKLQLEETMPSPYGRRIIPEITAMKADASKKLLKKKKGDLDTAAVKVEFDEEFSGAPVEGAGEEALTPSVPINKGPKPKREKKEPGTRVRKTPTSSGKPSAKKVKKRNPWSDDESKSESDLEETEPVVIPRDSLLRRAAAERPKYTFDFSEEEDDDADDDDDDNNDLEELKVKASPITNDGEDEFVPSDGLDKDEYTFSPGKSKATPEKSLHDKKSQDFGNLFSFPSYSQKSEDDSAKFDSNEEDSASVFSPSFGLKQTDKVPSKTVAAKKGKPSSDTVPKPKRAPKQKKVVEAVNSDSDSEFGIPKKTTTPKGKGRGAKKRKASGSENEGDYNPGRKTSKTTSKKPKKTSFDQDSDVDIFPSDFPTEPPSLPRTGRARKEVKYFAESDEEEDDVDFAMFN
UniProt P06748: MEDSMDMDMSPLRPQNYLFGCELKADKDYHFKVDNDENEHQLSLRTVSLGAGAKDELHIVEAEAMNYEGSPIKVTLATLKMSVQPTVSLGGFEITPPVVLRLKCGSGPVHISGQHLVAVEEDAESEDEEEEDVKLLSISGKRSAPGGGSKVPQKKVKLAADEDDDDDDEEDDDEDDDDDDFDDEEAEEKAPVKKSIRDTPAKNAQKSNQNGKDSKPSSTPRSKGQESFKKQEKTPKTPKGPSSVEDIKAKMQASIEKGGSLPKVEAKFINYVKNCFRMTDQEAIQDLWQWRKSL

Target: T1, wild type (WT) Taspase1-GFP (human) (UniProt Q9H6P5)
T1 sequence: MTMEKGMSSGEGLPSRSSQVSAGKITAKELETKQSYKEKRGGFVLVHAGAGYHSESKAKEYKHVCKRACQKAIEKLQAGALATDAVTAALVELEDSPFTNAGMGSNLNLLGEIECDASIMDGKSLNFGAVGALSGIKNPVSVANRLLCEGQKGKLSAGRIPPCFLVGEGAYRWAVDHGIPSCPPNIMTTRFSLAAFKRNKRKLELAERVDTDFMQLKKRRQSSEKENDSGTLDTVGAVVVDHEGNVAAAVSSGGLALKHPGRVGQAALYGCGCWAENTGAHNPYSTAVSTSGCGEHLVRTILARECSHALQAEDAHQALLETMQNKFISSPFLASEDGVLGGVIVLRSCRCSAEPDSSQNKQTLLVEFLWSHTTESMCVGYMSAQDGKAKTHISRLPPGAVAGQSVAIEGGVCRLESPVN
Assay: affinity purification with mass spectrometry; Taspase1-GFP immunoprecipitates (anti-GFP beads, HEK 293T) compared with GFP; LC-MS/MS, label-free quantification

binding	Substance
binds	Topoisomerase IIβ (Topo IIβ), endogenous (from UniProt Q02880 1-1626) (enzyme)
binds	Nucleophosmin1 (NPM1) (from UniProt P06748 1-294)
